Measurements published in article PMC2669129.
No constants are given. Whether binding was seen depends on the method and setting. Binding seen in cells or lysates may run through a third protein. Some binding calls cover weakened binding; strength is not graded here.

Amino acid sequences for entries named in this document (tags omitted).
UniProt P11388: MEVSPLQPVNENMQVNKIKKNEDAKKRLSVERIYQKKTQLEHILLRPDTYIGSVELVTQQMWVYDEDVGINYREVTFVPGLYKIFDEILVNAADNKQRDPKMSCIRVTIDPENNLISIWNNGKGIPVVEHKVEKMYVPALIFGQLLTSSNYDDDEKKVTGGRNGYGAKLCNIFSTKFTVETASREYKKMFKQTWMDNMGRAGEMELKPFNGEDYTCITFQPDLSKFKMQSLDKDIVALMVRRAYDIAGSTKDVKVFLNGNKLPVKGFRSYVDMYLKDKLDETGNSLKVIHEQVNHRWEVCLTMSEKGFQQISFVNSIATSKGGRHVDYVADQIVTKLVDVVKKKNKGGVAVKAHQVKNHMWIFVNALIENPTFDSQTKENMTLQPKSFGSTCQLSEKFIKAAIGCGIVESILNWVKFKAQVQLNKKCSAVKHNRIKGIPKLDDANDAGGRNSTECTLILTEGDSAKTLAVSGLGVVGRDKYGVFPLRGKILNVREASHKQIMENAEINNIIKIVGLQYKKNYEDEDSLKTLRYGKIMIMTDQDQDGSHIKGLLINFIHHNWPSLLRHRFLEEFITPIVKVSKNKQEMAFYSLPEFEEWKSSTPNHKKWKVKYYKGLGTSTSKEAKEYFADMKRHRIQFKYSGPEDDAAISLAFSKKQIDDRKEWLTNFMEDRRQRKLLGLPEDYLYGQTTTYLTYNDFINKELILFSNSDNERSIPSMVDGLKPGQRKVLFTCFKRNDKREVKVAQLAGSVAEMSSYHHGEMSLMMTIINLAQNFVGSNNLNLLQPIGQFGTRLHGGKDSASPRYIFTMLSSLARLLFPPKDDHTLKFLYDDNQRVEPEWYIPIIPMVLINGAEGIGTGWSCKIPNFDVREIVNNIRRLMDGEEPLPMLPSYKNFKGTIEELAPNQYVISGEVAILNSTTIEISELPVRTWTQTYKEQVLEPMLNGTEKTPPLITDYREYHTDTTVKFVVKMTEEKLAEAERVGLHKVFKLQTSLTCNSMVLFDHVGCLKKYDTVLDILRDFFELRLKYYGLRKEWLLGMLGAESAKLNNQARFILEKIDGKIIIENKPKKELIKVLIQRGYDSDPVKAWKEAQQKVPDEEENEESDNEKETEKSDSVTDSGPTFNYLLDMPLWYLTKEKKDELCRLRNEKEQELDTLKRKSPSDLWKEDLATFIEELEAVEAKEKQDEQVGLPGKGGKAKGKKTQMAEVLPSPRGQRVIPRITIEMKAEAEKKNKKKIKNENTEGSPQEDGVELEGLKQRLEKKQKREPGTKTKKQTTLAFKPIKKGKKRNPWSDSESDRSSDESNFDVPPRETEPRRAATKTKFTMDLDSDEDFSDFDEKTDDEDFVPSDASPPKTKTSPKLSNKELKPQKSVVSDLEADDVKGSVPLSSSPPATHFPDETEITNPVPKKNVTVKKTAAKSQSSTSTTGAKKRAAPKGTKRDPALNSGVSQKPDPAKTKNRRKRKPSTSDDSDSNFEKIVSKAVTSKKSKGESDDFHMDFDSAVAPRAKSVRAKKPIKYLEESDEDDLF

Biological target: Topoisomerase IIα (human (endogenous in MDA-MB-231)) (UniProt P11388)
Test: co-IP; Metnase and Topo IIα immunoprecipitated from MDA-MB-231 cells, Western blot; anti-Topo IIα (Topogen); in the presence of 1.0 U/mL DNase I

binding: binds
B1: Metnase (protein, UniProt Q53H47 1-684)
chain: MFAEAAKTTRPCGMAEFKEKPEAPTEQLDVACGQENLPVGAWPPGAAPAPFQYTPDHVVGPGADIDPTQITFPGCICVKTPCLPGTCSCLRHGENYDDNSCLRDIGSGGKYAEPVFECNVLCRCSDHCRNRVVQKGLQFHFQVFKTHKKGWGLRTLEFIPKGRFVCEYAGEVLGFSEVQRRIHLQTKSDSNYIIAIREHVYNGQVMETFVDPTYIGNIGRFLNHSCEPNLLMIPVRIDSMVPKLALFAAKDIVPEEELSYDYSGRYLNLTVSEDKERLDHGKLRKPCYCGAKSCTAFLPFDSSLYCPVEKSNISCGNEKEPSMCGSAPSVFPSCKRLTLETMKMMLDKKQIRAIFLFEFKMGRKAAETTRNINNAFGPGTANERTVQWWFKKFCKGDESLEDEERSGRPSEVDNDQLRAIIEADPLTTTREVAEELNVNHSTVVRHLKQIGKVKKLDKWVPHELTENQKNRRFEVSSSLILRNHNEPFLDRIVTCDEKWILYDNRRRSAQWLDQEEAPKHFPKPILHPKKVMVTIWWSAAGLIHYSFLNPGETITSEKYAQEIDEMNQKLQRLQLALVNRKGPILLHDNARPHVAQPTLQKLNELGYEVLPHPPYSPDLLPTNYHVFKHLNNFLQGKRFHNQQDAENAFQEFVESQSTDFYATGINQLISRWQKCVDCNGSYFD
